Results are given in words; binding and its absence hold for the method and conditions named. In cells and extracts the contact can be indirect. Binding calls can cover weak binding; strength is not graded here. For some of these results: Tags and fused reporters may be left off the sequences shown.
Experiments:
[1] = molecular target: T1, Myc-SVCV-P (spring viraemia of carp virus) (UniProt Q91DS2); assay: co-IP; HEK293 cells co-transfected with 10 ug of plasmids, 24 h; lysed in RIPA buffer with PMSF; supernatant incubated with anti-Myc or anti-GFP affinity gel; washed three times with lysis buffer; western blot
T1 sequence: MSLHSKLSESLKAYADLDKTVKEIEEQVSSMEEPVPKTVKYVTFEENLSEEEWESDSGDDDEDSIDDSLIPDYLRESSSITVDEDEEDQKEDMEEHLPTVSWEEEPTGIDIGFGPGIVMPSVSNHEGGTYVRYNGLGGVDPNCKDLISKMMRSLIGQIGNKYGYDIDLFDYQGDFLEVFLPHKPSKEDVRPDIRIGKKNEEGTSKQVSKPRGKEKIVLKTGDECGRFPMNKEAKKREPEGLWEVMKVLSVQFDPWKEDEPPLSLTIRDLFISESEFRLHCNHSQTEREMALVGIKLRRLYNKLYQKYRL

[2] = molecular target: T1, Myc-SVCV-P (spring viraemia of carp virus); assay: co-IP; as a1, cell lysates digested with RNase before the co-IP
[3] = molecular target: T2, SVCV-M (spring viraemia of carp virus) (UniProt P04888); assay: co-IP; HEK293 cells co-transfected with 10 ug of plasmids, 24 h; lysed in RIPA buffer with PMSF; supernatant incubated with anti-Myc or anti-GFP affinity gel; washed three times with lysis buffer; western blot
T2 sequence: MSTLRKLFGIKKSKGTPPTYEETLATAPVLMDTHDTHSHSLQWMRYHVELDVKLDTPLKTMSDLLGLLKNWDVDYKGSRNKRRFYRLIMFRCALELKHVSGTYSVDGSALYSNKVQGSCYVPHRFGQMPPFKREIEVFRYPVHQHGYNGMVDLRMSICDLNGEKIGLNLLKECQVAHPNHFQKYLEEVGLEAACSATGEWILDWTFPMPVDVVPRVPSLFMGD

[4] = molecular target: T3, SVCV-N (spring viraemia of carp virus) (UniProt Q91DS3); assay: as above
T3 sequence: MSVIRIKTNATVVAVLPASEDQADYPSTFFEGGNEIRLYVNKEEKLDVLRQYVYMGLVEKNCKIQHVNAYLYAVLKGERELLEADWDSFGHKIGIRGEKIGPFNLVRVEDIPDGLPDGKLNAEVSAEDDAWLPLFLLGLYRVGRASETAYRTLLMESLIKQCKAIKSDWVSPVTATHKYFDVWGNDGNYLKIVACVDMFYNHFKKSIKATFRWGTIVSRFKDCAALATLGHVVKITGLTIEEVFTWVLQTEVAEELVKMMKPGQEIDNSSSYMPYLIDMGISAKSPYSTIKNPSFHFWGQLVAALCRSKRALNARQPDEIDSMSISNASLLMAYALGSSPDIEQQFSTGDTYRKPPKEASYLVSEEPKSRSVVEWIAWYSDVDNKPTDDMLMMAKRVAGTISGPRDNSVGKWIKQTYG

[5] = molecular target: GFP-hnRNPC (zebrafish hnRNPC) (zebrafish (Danio rerio)); assay: as above

Question: For “Flag-hnRNPCC (84-272 aa) (zebrafish (Danio rerio)) (domain or fragment)”, which binding [1] is on record?
Answer: The binding was “binds”.

Question: How did the binding [1] turn out when “Flag-hnRNPCRRM (1-83 aa) (zebrafish (Danio rerio)) (domain or fragment)” was run?
Answer: Its binding is “binds”.

Question: For GFP-hnRNPC (zebrafish hnRNPC), which binding [2] is on record?
Answer: Its binding is “binds”.

Question: What about the binding [1] of the same molecule?
Answer: The binding was “binds”.

Question: What about the binding [3] of the same molecule?
Answer: The binding was “binds”.

Question: What about the binding [4] of the same molecule?
Answer: The binding was “binds”.

B1: Myc-SVCV-PCD (domain or fragment, UniProt Q91DS2 101-187)
chain: SWEEEPTGIDIGFGPGIVMPSVSNHEGGTYVRYNGLGGVDPNCKDLISKMMRSLIGQIGNKYGYDIDLFDYQGDFLEVFLPHKPSKE
Question: How did the binding [5] turn out when B1 was run?
Answer: Its binding is “binds”.
